Data from publication PMC12040643.
Results are given in words; binding and its absence hold for the method and conditions named. In cells and extracts the contact can be indirect. Some binding calls cover weakened binding; strength is not graded here.

Amino acid sequences for entries named in this document (tags omitted). A change or cut given only in a name is not applied to a line headed by its entry. Residues count along the entry.
UniProt P13612: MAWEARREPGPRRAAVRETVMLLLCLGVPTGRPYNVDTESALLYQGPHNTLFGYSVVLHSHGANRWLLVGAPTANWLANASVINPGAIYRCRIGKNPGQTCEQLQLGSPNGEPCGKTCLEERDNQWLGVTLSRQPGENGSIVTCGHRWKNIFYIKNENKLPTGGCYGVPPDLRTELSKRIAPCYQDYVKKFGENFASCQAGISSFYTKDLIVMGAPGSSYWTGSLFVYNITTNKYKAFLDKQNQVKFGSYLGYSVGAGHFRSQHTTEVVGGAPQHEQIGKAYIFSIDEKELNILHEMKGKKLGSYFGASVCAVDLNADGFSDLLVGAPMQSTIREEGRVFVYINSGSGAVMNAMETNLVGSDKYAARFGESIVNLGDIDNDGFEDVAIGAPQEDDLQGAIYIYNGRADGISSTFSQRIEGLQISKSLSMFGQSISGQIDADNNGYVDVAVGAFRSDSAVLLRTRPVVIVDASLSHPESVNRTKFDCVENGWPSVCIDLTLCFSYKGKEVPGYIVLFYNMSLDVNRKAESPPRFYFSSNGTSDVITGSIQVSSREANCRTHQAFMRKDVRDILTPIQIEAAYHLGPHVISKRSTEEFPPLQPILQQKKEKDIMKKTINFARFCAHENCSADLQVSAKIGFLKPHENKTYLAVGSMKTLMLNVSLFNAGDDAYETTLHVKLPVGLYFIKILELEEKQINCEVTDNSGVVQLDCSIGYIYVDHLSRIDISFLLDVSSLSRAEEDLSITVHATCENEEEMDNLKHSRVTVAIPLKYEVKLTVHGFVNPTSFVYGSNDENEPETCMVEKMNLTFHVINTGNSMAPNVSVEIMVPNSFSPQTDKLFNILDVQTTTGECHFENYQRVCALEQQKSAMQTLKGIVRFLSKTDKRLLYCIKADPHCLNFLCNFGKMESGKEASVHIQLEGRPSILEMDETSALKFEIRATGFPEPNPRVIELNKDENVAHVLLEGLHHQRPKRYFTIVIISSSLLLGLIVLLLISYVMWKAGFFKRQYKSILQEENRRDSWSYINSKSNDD
UniProt P05556: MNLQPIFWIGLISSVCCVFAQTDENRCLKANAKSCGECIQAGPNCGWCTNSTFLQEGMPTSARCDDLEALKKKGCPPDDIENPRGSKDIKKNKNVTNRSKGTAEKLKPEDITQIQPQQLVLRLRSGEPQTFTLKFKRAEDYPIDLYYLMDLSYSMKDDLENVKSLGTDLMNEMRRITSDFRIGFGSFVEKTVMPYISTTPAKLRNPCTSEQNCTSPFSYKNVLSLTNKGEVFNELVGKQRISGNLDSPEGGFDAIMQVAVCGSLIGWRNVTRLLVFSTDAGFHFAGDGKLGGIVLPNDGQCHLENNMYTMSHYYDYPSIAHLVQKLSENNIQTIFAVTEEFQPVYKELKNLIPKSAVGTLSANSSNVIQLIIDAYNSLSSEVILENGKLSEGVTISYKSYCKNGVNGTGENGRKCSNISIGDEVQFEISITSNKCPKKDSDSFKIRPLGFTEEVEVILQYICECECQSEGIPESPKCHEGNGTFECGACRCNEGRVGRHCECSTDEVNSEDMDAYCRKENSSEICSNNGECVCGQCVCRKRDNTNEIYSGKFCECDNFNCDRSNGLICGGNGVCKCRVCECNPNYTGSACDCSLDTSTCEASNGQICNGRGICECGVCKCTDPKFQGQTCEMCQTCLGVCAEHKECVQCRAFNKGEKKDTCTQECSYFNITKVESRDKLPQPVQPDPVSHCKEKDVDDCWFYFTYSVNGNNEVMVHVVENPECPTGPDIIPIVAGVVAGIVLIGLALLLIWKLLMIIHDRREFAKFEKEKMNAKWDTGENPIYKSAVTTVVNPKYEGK
UniProt Q08722, residues 19-323: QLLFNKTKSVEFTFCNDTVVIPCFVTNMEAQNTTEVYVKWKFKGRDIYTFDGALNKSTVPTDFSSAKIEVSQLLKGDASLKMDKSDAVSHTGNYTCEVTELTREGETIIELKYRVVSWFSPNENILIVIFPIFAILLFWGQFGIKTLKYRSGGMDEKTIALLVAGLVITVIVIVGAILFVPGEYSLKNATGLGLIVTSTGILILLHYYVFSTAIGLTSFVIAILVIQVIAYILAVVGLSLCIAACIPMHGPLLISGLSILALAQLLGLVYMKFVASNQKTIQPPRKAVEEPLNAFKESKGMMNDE
UniProt P20701: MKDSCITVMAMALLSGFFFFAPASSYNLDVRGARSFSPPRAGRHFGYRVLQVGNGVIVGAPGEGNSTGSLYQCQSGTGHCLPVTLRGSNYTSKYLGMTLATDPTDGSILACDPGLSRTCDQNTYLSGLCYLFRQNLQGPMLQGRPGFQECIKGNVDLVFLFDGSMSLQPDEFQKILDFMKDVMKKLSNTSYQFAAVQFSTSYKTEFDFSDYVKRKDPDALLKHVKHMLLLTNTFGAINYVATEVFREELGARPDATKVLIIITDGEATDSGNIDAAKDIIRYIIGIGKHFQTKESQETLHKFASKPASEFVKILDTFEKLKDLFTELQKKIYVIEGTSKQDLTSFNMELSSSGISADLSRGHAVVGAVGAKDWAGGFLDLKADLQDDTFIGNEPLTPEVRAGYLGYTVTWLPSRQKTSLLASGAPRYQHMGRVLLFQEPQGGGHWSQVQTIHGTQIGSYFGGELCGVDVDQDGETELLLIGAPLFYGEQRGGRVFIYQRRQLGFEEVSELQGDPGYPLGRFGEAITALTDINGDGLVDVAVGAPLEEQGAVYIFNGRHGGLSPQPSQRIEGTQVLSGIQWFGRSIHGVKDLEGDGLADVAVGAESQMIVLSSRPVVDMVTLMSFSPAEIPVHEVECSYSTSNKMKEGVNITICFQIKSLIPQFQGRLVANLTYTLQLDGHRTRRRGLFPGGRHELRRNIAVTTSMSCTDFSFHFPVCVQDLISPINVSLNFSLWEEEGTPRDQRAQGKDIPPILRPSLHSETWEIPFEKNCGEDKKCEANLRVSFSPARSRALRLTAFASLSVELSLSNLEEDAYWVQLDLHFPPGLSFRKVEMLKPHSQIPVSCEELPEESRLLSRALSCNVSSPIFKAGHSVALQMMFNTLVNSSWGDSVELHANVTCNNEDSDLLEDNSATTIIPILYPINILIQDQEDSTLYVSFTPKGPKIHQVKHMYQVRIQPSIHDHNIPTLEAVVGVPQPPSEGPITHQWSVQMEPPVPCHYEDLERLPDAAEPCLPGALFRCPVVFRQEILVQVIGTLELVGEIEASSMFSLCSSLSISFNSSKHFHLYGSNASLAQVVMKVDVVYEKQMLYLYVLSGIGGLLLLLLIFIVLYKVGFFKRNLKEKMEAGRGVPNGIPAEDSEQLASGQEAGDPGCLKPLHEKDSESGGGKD

Columns and labels:
[1] = target: integrin α4β1 (human (endogenous in Jurkat)) (UniProt P13612+P05556); experiment: co-IP; endogenous proteins of human Jurkat cells lysed in RIPA solution with PMSF; lysate with anti-CD47, anti-integrin subunit α4 or anti-integrin subunit β1 antibody at 4°C overnight, Protein G sepharose beads 3 h, western blot; isotype control antibody as negative; the antibodies of the co-IP with integrin αLβ2 are not told
[2] = target: CD47 (human (endogenous in Jurkat)) (UniProt Q08722); experiment: as above

binding [1] | binding [2] | Substance
binds |  | CD47 (from UniProt Q08722 19-323) (receptor)
 | binds | integrin α4β1 (from UniProt P13612 34-1032; P05556 21-798) (complex)
 | no binding | integrin αLβ2 (from UniProt P20701 26-1170; P05107 23-769) (complex)
